Read-outs that look alike come from different tables or passages of the source.

These results are taken from patent US6870029B2, “Method of diagnosing and treating gliomas” (priority 1995, dated 2005).

This data set concerns astrocytoma Cl− channel. Briefly: Anion substitution, tail current reversal potential and current amplitude. Format: cell-based, human.
[1] abbreviates: equimolar (125 mM) replacement of external chloride, mean change from NaCl control.
The mark [2] stands for this setting: permeability ratio, Goldman-Hodgkin-Katz equation.

Regarding `CC(=O)O` [Acetate], the ΔErev under setting [1] was determined as 4.0 ± 0 mV. Moreover, under setting [2], the Panion/PCl stood at 0.90 ± 0.02.
In the case of `Br` [Bromide], under setting [1], the ΔErev was −15.5 ± 6.3 mV. Further, the Panion/PCl under setting [2] is 1.95 ± 0.47.
Regarding `F` [Fluoride], the ΔErev under setting [1] was 24.6 ± 3.0 mV. For the same compound, under setting [2], the Panion/PCl turned out to be 0.41 ± 0.05.
`N[C@@H](CCC(=O)O)C(=O)O` [Glutamate]: the ΔErev under setting [1] is reported as 29.8 ± 2.3 mV. Also, under setting [2], the Panion/PCl worked out at 0.33 ± 0.18.
Taken in the same sequence, the figures for `I` [Iodide] were −20.8 ± 7.5 mV and 2.44 ± 0.65.
Taken in the same sequence, the figures for `O=S(=O)(O)CCO` [Isethionate] were 18.5 ± 0.7 mV and 0.51 ± 0.01.
As to `O=[N+]([O-])O` [Nitrate], the Panion/PCl amounted to 2.02 ± 0.58 and the ΔErev is −15.8 ± 8.8 mV.
